Results: publication PMC5603516
These are yes or no findings as the source states them, for the method shown. For part of these data: In cells and extracts the contact can be indirect. Some results given as binding are weak or reduced against the parent protein; the word gives no strength. Sequences can lack the tags named with a protein.

Key:
[1] = molecular target: T1, GST tagged full length recombinant PIP4k2b (GST-PIP4k2b) (mouse) (UniProt Q80XI4); test: pull-down; in vitro binding: MANF-His mixed with GST-PIP4k2b (or fragment) on glutathione beads in 500 μl NP40 buffer, 4 °C overnight; washed three times; western blotting; both purified
T1 sequence: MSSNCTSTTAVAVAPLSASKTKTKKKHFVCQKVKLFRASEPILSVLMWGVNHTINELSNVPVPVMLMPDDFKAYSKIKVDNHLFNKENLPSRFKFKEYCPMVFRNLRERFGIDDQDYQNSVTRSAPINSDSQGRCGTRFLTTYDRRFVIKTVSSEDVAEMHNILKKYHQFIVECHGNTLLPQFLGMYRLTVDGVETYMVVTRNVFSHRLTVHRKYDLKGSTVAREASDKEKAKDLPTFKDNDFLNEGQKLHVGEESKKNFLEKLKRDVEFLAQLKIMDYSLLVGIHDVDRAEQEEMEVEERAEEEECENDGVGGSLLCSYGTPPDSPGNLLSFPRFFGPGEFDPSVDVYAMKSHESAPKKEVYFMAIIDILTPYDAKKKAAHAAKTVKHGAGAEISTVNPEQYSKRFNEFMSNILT

[2] = molecular target: T2, MANF with a C-terminal HA tag (MANF-HA), expressed in PC12 cells (mouse) (UniProt Q9CXI5); test: co-IP; PC12 cells transfected with MANF-HA and Myc-PIP4k2b; lysate in NP-40 buffer; precipitated with an HA antibody and protein A-agarose; western blotting
T2 sequence: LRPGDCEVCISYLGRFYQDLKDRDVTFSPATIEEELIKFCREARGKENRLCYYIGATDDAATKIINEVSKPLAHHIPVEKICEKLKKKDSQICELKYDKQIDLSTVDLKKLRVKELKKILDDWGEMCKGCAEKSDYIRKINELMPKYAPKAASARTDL

[3] = molecular target: T3, transgenic MANF with HA tag, expressed in the brain of MANF transgenic mice (mouse) (UniProt Q9CXI5); test: co-IP; brain lysate of MANF transgenic mice in NP-40 buffer; antibody and protein A-agarose; western blotting for endogenous PIP4k2b
T3 sequence: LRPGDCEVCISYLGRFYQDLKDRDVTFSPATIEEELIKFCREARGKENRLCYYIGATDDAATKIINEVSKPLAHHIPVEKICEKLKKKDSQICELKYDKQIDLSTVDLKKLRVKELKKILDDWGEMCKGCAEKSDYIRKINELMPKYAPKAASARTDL

B1: mouse MANF with a C-terminal His tag (MANF-His) (protein, UniProt Q9CXI5 22-179)
chain: LRPGDCEVCISYLGRFYQDLKDRDVTFSPATIEEELIKFCREARGKENRLCYYIGATDDAATKIINEVSKPLAHHIPVEKICEKLKKKDSQICELKYDKQIDLSTVDLKKLRVKELKKILDDWGEMCKGCAEKSDYIRKINELMPKYAPKAASARTDL
binding [1]: binds

B2: Myc tagged PIP4k2b (Myc-PIP4k2b) (enzyme, UniProt Q80XI4 1-416)
chain: MSSNCTSTTAVAVAPLSASKTKTKKKHFVCQKVKLFRASEPILSVLMWGVNHTINELSNVPVPVMLMPDDFKAYSKIKVDNHLFNKENLPSRFKFKEYCPMVFRNLRERFGIDDQDYQNSVTRSAPINSDSQGRCGTRFLTTYDRRFVIKTVSSEDVAEMHNILKKYHQFIVECHGNTLLPQFLGMYRLTVDGVETYMVVTRNVFSHRLTVHRKYDLKGSTVAREASDKEKAKDLPTFKDNDFLNEGQKLHVGEESKKNFLEKLKRDVEFLAQLKIMDYSLLVGIHDVDRAEQEEMEVEERAEEEECENDGVGGSLLCSYGTPPDSPGNLLSFPRFFGPGEFDPSVDVYAMKSHESAPKKEVYFMAIIDILTPYDAKKKAAHAAKTVKHGAGAEISTVNPEQYSKRFNEFMSNILT
binding [2]: binds

B3: phosphatidylinositol 5-phosphate 4-kinase type-2 beta (PIP4k2b), endogenous in mouse brain (enzyme, UniProt Q80XI4 1-416)
chain: MSSNCTSTTAVAVAPLSASKTKTKKKHFVCQKVKLFRASEPILSVLMWGVNHTINELSNVPVPVMLMPDDFKAYSKIKVDNHLFNKENLPSRFKFKEYCPMVFRNLRERFGIDDQDYQNSVTRSAPINSDSQGRCGTRFLTTYDRRFVIKTVSSEDVAEMHNILKKYHQFIVECHGNTLLPQFLGMYRLTVDGVETYMVVTRNVFSHRLTVHRKYDLKGSTVAREASDKEKAKDLPTFKDNDFLNEGQKLHVGEESKKNFLEKLKRDVEFLAQLKIMDYSLLVGIHDVDRAEQEEMEVEERAEEEECENDGVGGSLLCSYGTPPDSPGNLLSFPRFFGPGEFDPSVDVYAMKSHESAPKKEVYFMAIIDILTPYDAKKKAAHAAKTVKHGAGAEISTVNPEQYSKRFNEFMSNILT
binding [3]: binds
